PubChem BioAssay AID1224831, NIAID, 2016

Test: 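Genes that support or restrain LPS-induced TNF-alpha reporter activity in macrophage-like cells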 (follow-up of hits)
Cell system: human THP-1 B5 monocytic leukaemia cells carrying a TNF promoter luciferase reporter, made macrophage-like with PMA
Reagents: single siRNA against human genes, 50 nM
Duration: about 68 h of knock-down, then 4 h LPS
Conditions: LPS (Salmonella minnesota, TLR-grade) at 10 ng/ml for 4 h; PMA 5 ng/ml present during knock-down
Measured: 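Firefly to renilla luciferase ratio of a TNF promoter reporter after 4 h LPS, scaled to plate median, turned into robust z-score, averaged over replicates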
Reading the numbers: TNF reporter z-score: higher = stronger LPS-induced TNF reporter signal; z-score, median over gene's siRNAs: higher = stronger TNF reporter signal across the gene's siRNAs
Active means: 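Active when the replicate mean z-score is about -1 or lower, or about 1.5 or higher; lowered and raised TNF reporter signal both count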
Meaning of the calls: active = changed TNF reporter (either direction); inactive = little change
Shown is one part, drawn at random, of about 3,500 deposited reagents. 731 of all reagents (21%) count as active. 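Active means either lowered or raised reporter signal; the gene-median score did not drive the per-siRNA calls.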 Reagents against one gene are numbered here. Reagent sequences are not shown.

With SUV39H2 #1, what was measured?
TNF reporter z-score, replicate mean: 0.27; z-score, median over gene's siRNAs: 0.51; Outcome: inactive

With SUV39H2 #2, how do the results read?
TNF reporter z-score, replicate mean: 1.74; z-score, median over gene's siRNAs: 0.51; Outcome: active

For SUV39H2 #3, how do the results read?
TNF reporter z-score, replicate mean: 0.05; z-score, median over gene's siRNAs: 0.51; Outcome: inactive

Which result is listed for SUV39H2 #4?
TNF reporter z-score, replicate mean: 0.43; z-score, median over gene's siRNAs: 0.51; Outcome: inactive

Which result is listed for SUV39H2 #5?
TNF reporter z-score, replicate mean: 0.59; z-score, median over gene's siRNAs: 0.51; Outcome: inactive

How did the screen score SUV39H2 #6?
TNF reporter z-score, replicate mean: 0.78; z-score, median over gene's siRNAs: 0.51; Outcome: inactive

What is on record for RPS6KA4 #1?
TNF reporter z-score, replicate mean: -1.34; z-score, median over gene's siRNAs: -0.55; Outcome: active

With RPS6KA4 #2, what does the deposit list?
TNF reporter z-score, replicate mean: 0.36; z-score, median over gene's siRNAs: -0.55; Outcome: inactive

How did the screen score RPS6KA4 #3?
TNF reporter z-score, replicate mean: -1.41; z-score, median over gene's siRNAs: -0.55; Outcome: active

For RPS6KA4 #4, what does the deposit list?
TNF reporter z-score, replicate mean: -0.38; z-score, median over gene's siRNAs: -0.55; Outcome: inactive

What did the screen give for RPS6KA4 #5?
TNF reporter z-score, replicate mean: 0.28; z-score, median over gene's siRNAs: -0.55; Outcome: inactive

What is on record for RPS6KA4 #6?
TNF reporter z-score, replicate mean: -0.72; z-score, median over gene's siRNAs: -0.55; Outcome: inactive

Which result is listed for STK4 #1?
TNF reporter z-score, replicate mean: 0.16; z-score, median over gene's siRNAs: -0.075; Outcome: inactive

For STK4 #2, what does the deposit list?
TNF reporter z-score, replicate mean: -0.09; z-score, median over gene's siRNAs: -0.075; Outcome: inactive

Which result is listed for STK4 #3?
TNF reporter z-score, replicate mean: -0.42; z-score, median over gene's siRNAs: -0.075; Outcome: inactive

What is on record for STK4 #4?
TNF reporter z-score, replicate mean: -0.52; z-score, median over gene's siRNAs: -0.075; Outcome: inactive

With STK4 #5, what does the deposit list?
TNF reporter z-score, replicate mean: 0.9; z-score, median over gene's siRNAs: -0.075; Outcome: inactive

For STK4 #6, how do the results read?
TNF reporter z-score, replicate mean: -0.06; z-score, median over gene's siRNAs: -0.075; Outcome: inactive

With RASAL2 #1, what was measured?
TNF reporter z-score, replicate mean: -1.16; z-score, median over gene's siRNAs: -0.835; Outcome: active

What did the screen give for RASAL2 #2?
TNF reporter z-score, replicate mean: 0.59; z-score, median over gene's siRNAs: -0.835; Outcome: inactive

For RASAL2 #3, what was measured?
TNF reporter z-score, replicate mean: -0.11; z-score, median over gene's siRNAs: -0.835; Outcome: inactive

With RASAL2 #4, what does the deposit list?
TNF reporter z-score, replicate mean: -0.85; z-score, median over gene's siRNAs: -0.835; Outcome: inactive

With RASAL2 #5, what does the deposit list?
TNF reporter z-score, replicate mean: -0.82; z-score, median over gene's siRNAs: -0.835; Outcome: inactive

For RASAL2 #6, what was measured?
TNF reporter z-score, replicate mean: -1.1; z-score, median over gene's siRNAs: -0.835; Outcome: active

6 neighbouring entries from above, quoted:
RPS6KA4 #5 — TNF reporter z-score, replicate mean: 0.28; z-score, median over gene's siRNAs: -0.55; Outcome: inactive
RPS6KA4 #6 — TNF reporter z-score, replicate mean: -0.72; z-score, median over gene's siRNAs: -0.55; Outcome: inactive
STK4 #1 — TNF reporter z-score, replicate mean: 0.16; z-score, median over gene's siRNAs: -0.075; Outcome: inactive
STK4 #2 — TNF reporter z-score, replicate mean: -0.09; z-score, median over gene's siRNAs: -0.075; Outcome: inactive
STK4 #3 — TNF reporter z-score, replicate mean: -0.42; z-score, median over gene's siRNAs: -0.075; Outcome: inactive
STK4 #4 — TNF reporter z-score, replicate mean: -0.52; z-score, median over gene's siRNAs: -0.075; Outcome: inactive

The listing continues.
Which result is listed for TIGD6 #1?
TNF reporter z-score, replicate mean: 0.35; z-score, median over gene's siRNAs: 0.3; Outcome: inactive

For TIGD6 #2, what does the deposit list?
TNF reporter z-score, replicate mean: 0.18; z-score, median over gene's siRNAs: 0.3; Outcome: inactive

For TIGD6 #3, what does the deposit list?
TNF reporter z-score, replicate mean: 3.29; z-score, median over gene's siRNAs: 0.3; Outcome: active

With TIGD6 #4, what does the deposit list?
TNF reporter z-score, replicate mean: 0.07; z-score, median over gene's siRNAs: 0.3; Outcome: inactive

How did the screen score TIGD6 #5?
TNF reporter z-score, replicate mean: 0.25; z-score, median over gene's siRNAs: 0.3; Outcome: inactive

For TIGD6 #6, what does the deposit list?
TNF reporter z-score, replicate mean: 3.69; z-score, median over gene's siRNAs: 0.3; Outcome: active

What did the screen give for DENND5A #1?
TNF reporter z-score, replicate mean: 0.61; z-score, median over gene's siRNAs: 0.33; Outcome: inactive

For DENND5A #2, how do the results read?
TNF reporter z-score, replicate mean: 0.24; z-score, median over gene's siRNAs: 0.33; Outcome: inactive

What is on record for DENND5A #3?
TNF reporter z-score, replicate mean: -0.71; z-score, median over gene's siRNAs: 0.33; Outcome: inactive

With DENND5A #4, what was measured?
TNF reporter z-score, replicate mean: 0.42; z-score, median over gene's siRNAs: 0.33; Outcome: inactive

With DENND5A #5, how do the results read?
TNF reporter z-score, replicate mean: -0.88; z-score, median over gene's siRNAs: 0.33; Outcome: inactive

How did the screen score DENND5A #6?
TNF reporter z-score, replicate mean: 1.07; z-score, median over gene's siRNAs: 0.33; Outcome: inactive

How did the screen score LCK #1?
TNF reporter z-score, replicate mean: -0.12; z-score, median over gene's siRNAs: 0.105; Outcome: inactive

How did the screen score LCK #2?
TNF reporter z-score, replicate mean: 0.68; z-score, median over gene's siRNAs: 0.105; Outcome: inactive

For LCK #3, what was measured?
TNF reporter z-score, replicate mean: -0.05; z-score, median over gene's siRNAs: 0.105; Outcome: inactive

What is on record for LCK #4?
TNF reporter z-score, replicate mean: 0.26; z-score, median over gene's siRNAs: 0.105; Outcome: inactive

What is on record for LCK #5?
TNF reporter z-score, replicate mean: 1.15; z-score, median over gene's siRNAs: 0.105; Outcome: inactive

What did the screen give for LCK #6?
TNF reporter z-score, replicate mean: -1.55; z-score, median over gene's siRNAs: 0.105; Outcome: active

With CHD8 #1, what was measured?
TNF reporter z-score, replicate mean: -0.32; z-score, median over gene's siRNAs: 2.5; Outcome: inactive

Which result is listed for CHD8 #2?
TNF reporter z-score, replicate mean: 3.13; z-score, median over gene's siRNAs: 2.5; Outcome: active

For CHD8 #3, what does the deposit list?
TNF reporter z-score, replicate mean: 1.86; z-score, median over gene's siRNAs: 2.5; Outcome: active

How did the screen score CHD8 #4?
TNF reporter z-score, replicate mean: -0.37; z-score, median over gene's siRNAs: 2.5; Outcome: inactive

Which result is listed for CHD8 #5?
TNF reporter z-score, replicate mean: 5.77; z-score, median over gene's siRNAs: 2.5; Outcome: active

What did the screen give for CHD8 #6?
TNF reporter z-score, replicate mean: 7.14; z-score, median over gene's siRNAs: 2.5; Outcome: active

What did the screen give for ZFP2 #1?
TNF reporter z-score, replicate mean: 1.04; z-score, median over gene's siRNAs: 0.41; Outcome: inactive

What is on record for ZFP2 #2?
TNF reporter z-score, replicate mean: -0.1; z-score, median over gene's siRNAs: 0.41; Outcome: inactive

How did the screen score ZFP2 #3?
TNF reporter z-score, replicate mean: 1.1; z-score, median over gene's siRNAs: 0.41; Outcome: inactive

How did the screen score ZFP2 #4?
TNF reporter z-score, replicate mean: 0.92; z-score, median over gene's siRNAs: 0.41; Outcome: inactive

What did the screen give for ZFP2 #5?
TNF reporter z-score, replicate mean: -0.23; z-score, median over gene's siRNAs: 0.41; Outcome: inactive

What is on record for ZFP2 #6?
TNF reporter z-score, replicate mean: -0.59; z-score, median over gene's siRNAs: 0.41; Outcome: inactive
